This is one part of the list. This is a noisy data set.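 Tm was set to 64 °C where no melting was found, and many curves are irregular.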
Compound: CCc1cnccc1C(=O)Nc1cc2c(cc1F)NC(=O)CC2
Experiment: melting temperature shift (DMSO Tm minus MBE1-treated Tm) in cellular thermal proteome profiling; higher = less thermal stabilization by MBE1 (negative = stabilized by MBE1)
Conditions: A375

Amino acid sequences for entries named in this document (tags omitted). A change or cut given only in a name is not applied to a line headed by its entry.
UniProt P62166, whole entry, looked up: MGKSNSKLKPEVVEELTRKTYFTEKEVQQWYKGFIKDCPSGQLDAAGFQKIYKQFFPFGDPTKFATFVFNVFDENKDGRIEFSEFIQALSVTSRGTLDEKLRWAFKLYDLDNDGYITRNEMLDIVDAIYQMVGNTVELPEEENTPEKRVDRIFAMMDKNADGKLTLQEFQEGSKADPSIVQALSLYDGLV
UniProt P52756, whole entry: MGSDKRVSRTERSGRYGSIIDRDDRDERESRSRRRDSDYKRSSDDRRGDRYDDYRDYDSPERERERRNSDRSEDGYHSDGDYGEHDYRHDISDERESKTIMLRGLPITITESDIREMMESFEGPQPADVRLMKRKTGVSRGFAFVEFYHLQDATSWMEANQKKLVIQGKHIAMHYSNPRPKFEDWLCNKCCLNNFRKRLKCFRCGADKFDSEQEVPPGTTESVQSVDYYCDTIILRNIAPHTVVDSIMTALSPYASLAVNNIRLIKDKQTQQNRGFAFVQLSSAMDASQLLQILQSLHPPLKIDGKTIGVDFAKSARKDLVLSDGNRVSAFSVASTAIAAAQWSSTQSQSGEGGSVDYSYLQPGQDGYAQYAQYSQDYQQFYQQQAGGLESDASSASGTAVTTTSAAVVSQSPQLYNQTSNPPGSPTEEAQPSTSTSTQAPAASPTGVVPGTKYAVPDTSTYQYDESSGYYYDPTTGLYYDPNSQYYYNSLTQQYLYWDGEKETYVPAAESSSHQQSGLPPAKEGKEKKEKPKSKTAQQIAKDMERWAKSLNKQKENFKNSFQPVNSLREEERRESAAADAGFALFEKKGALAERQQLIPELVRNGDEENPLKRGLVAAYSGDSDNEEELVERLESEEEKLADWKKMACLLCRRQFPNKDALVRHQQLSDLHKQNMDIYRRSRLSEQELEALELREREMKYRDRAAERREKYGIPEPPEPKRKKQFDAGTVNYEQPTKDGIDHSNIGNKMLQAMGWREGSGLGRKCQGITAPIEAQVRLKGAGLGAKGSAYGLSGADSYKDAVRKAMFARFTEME
UniProt P53597: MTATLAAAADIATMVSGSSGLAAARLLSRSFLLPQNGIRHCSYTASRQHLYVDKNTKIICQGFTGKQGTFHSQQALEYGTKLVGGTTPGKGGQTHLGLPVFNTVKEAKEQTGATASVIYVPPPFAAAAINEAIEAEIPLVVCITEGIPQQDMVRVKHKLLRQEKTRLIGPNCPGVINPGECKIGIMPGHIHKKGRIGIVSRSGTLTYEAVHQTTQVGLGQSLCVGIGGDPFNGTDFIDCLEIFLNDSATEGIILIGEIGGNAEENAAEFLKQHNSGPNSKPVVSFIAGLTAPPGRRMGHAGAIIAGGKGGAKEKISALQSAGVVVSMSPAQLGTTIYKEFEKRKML
UniProt P53778: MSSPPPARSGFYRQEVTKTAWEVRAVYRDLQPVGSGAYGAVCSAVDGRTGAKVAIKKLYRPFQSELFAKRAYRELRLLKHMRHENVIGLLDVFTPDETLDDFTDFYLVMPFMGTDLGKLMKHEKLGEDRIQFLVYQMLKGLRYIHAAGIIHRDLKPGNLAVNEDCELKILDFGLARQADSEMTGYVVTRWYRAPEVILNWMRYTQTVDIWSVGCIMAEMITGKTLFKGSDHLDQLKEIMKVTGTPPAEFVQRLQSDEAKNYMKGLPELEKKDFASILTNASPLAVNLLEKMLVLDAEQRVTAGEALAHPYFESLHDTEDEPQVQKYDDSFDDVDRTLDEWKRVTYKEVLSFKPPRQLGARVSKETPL
UniProt P58546, whole entry: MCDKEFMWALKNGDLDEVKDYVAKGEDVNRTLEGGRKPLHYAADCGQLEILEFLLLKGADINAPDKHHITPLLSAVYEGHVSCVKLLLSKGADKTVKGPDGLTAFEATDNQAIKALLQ
UniProt P55039: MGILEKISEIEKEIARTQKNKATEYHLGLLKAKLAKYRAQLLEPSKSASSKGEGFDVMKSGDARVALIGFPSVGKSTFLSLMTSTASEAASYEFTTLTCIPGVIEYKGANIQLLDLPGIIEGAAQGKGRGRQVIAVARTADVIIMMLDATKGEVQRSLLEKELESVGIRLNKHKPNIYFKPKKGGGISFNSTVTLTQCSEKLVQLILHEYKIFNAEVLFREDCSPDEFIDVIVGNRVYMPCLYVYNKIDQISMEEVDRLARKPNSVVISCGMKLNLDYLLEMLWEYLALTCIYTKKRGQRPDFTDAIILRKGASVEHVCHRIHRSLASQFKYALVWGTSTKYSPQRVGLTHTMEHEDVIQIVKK
UniProt P61024, whole entry: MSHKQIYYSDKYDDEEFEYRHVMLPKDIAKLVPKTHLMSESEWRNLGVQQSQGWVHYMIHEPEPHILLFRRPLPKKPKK
UniProt P60953, whole entry, looked up: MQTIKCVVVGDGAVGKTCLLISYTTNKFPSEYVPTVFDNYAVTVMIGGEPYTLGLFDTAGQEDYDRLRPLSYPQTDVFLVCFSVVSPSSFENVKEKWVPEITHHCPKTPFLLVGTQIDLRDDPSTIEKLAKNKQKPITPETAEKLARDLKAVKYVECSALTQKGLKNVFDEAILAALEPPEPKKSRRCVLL
UniProt P60520, whole entry: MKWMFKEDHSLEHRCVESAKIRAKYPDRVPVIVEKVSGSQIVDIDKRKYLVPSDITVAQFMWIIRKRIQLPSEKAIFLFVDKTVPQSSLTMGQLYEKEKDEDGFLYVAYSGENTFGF
UniProt P68400, whole entry, looked up: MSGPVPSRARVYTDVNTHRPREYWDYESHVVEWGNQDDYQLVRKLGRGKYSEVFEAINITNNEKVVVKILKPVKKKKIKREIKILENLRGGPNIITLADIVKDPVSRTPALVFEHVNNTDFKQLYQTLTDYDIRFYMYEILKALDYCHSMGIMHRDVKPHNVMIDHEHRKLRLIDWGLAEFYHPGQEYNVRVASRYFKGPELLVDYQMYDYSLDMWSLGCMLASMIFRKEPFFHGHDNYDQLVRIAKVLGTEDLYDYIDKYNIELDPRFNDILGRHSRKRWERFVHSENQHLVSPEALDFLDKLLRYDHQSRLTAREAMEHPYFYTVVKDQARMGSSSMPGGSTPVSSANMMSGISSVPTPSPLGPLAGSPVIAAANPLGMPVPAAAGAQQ
UniProt P55957: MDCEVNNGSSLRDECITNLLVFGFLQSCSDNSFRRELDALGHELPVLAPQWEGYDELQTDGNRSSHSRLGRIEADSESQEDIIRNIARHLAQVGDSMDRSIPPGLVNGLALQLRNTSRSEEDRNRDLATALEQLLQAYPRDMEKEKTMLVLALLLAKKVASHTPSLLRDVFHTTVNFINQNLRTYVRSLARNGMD
UniProt P59780: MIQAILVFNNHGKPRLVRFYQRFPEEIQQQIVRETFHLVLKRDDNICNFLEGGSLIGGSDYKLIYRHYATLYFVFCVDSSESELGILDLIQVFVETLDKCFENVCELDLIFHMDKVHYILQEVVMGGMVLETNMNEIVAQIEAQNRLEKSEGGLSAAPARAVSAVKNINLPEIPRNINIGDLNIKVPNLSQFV
UniProt P57737: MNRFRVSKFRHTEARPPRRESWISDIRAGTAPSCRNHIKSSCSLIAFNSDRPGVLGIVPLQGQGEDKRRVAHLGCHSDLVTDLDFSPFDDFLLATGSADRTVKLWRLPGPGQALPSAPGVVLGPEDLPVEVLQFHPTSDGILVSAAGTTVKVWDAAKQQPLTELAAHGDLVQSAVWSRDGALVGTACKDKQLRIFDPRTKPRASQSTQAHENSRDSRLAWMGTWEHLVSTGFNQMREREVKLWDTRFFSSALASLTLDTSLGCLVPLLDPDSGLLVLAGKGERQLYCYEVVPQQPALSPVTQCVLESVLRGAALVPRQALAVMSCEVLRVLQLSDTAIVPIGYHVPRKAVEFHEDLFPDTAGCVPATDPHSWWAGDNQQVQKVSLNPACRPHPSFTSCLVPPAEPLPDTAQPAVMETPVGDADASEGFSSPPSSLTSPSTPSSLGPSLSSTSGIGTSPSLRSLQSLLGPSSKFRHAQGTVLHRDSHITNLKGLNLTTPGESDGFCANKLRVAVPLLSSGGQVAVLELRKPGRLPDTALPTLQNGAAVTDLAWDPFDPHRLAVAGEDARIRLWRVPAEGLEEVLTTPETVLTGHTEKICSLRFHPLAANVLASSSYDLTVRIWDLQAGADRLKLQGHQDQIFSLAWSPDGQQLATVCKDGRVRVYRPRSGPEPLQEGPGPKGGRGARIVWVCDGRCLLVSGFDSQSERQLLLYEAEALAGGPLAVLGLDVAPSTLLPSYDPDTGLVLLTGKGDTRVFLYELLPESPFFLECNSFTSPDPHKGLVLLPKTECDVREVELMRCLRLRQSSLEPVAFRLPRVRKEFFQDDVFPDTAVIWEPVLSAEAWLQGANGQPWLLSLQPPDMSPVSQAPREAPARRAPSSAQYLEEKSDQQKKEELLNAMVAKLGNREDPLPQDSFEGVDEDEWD
UniProt P68366, whole entry: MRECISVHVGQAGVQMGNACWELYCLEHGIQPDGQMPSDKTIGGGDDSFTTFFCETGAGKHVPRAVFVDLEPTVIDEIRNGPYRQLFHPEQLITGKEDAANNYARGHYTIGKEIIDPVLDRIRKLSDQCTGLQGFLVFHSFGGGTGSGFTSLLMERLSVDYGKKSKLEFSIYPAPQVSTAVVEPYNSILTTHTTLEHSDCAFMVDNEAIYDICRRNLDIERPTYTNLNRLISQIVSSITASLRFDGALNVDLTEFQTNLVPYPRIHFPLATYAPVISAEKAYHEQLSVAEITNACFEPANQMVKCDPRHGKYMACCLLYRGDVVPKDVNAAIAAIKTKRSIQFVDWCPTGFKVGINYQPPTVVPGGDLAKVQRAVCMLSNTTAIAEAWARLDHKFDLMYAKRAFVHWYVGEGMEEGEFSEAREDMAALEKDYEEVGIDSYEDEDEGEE
UniProt P53384: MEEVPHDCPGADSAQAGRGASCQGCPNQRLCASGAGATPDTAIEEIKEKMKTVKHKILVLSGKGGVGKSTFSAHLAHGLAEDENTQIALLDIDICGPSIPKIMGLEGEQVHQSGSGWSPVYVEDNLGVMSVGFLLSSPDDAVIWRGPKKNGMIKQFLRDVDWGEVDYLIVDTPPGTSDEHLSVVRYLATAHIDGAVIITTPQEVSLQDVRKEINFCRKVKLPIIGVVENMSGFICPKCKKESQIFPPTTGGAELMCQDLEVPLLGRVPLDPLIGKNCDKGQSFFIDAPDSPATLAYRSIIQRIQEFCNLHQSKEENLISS
UniProt P63096, whole entry: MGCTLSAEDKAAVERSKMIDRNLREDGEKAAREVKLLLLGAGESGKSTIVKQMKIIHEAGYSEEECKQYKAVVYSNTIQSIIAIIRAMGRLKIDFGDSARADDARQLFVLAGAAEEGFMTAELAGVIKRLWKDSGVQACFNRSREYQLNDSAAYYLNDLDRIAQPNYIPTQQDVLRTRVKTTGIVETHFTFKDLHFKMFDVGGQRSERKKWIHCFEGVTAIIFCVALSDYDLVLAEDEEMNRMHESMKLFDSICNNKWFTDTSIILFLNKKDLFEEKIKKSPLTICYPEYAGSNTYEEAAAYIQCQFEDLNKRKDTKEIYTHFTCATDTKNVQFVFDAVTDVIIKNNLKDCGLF
UniProt P54289, whole entry: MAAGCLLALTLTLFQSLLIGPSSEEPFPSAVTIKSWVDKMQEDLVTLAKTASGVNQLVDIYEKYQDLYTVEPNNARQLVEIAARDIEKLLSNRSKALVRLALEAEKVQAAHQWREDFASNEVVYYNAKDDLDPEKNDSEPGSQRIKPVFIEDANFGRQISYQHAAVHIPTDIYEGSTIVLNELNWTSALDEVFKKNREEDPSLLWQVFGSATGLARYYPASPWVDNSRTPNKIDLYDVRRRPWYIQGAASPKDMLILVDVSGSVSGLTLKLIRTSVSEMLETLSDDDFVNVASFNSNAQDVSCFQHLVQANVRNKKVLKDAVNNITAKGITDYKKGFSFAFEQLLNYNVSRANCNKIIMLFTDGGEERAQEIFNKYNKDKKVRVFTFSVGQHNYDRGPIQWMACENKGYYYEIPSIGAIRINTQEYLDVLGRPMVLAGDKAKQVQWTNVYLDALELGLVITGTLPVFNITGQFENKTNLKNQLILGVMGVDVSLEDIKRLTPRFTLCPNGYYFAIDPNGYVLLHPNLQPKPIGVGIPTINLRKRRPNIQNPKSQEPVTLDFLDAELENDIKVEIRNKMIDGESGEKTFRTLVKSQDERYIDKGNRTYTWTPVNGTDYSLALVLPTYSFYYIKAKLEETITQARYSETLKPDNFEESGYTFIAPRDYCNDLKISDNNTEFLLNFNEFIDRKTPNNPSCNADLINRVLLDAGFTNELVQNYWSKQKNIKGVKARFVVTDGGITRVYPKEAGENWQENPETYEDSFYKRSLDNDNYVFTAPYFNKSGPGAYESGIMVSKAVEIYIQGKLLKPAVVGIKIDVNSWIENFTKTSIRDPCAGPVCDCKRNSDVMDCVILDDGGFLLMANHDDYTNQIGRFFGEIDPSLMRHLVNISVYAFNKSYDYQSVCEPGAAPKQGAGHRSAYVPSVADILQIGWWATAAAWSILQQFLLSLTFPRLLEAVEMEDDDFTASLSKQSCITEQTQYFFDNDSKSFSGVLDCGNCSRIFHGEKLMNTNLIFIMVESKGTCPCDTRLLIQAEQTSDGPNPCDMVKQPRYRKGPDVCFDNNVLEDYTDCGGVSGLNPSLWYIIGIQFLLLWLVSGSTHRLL

Row | Target | melting temperature shift (MBE1 concentration: 100 nM) | melting temperature shift (MBE1 concentration: 1 uM)
1 | NCS1 (UniProt P62166) | -1.08 °C | -0.557 °C
2 | UniProt P52756 | -0.333 °C | -0.557 °C
3 | SUCLG1 (UniProt P53597) | 0.302 °C | 0.793 °C
4 | MAPK12 (UniProt P53778) | -0.738 °C | 0.733 °C
5 | MTPN (UniProt P58546) | -0.506 °C | -0.11 °C
6 | DRG2 (UniProt P55039) | -0.11 °C | 0.391 °C
7 | CKS1B (UniProt P61024) | -1.68 °C | -3.63 °C
8 | METAP1 (UniProt P53582) | -1.66 °C | -0.382 °C
9 | CDC42 (UniProt P60953) | -1.33 °C | -0.932 °C
10 | GABARAPL2 (UniProt P60520) | -1.05 °C | 0.664 °C
11 | ARPC4 (UniProt P59998) | -2.25 °C | -3.26 °C
12 | UniProt P68400 | -0.763 °C | 0.525 °C
13 | COPB1 (UniProt P53618) | -0.624 °C | 0.275 °C
14 | RPL32 (UniProt P62910) | -1.18 °C | -0.0886 °C
15 | BID (UniProt P55957) | -1.69 °C | -2.51 °C
16 | UniProt P59780 | 0.495 °C | 0.336 °C
17 | RPS21 (UniProt P63220) | -0.697 °C | 1.24 °C
18 | UBE2K (UniProt P61086) | -0.282 °C | -0.617 °C
19 | ACTG1 (UniProt P63261) | -2.46 °C | 0.0733 °C
20 | CORO7 (UniProt P57737) | -0.32 °C | -0.218 °C
21 | TUBA4A (UniProt P68366) | -0.181 °C | 0.241 °C
22 | NUBP1 (UniProt P53384) | 0.369 °C | 0.563 °C
23 | GNAI1 (UniProt P63096) | -1.17 °C | -0.62 °C
24 | RPS25 (UniProt P62851) | -1.57 °C | -1.23 °C
25 | UniProt P54289 | -1.04 °C | 0.288 °C

Record cards, as listed above.
METAP1 (UniProt P53582) in the list: melting temperature shift (MBE1 concentration: 100 nM): -1.66 °C; melting temperature shift (MBE1 concentration: 1 uM): -0.382 °C
RPS21 (UniProt P63220) in the list: melting temperature shift (MBE1 concentration: 100 nM): -0.697 °C; melting temperature shift (MBE1 concentration: 1 uM): 1.24 °C

Source: the supplement of paper PMC12595434, “Development of retinoid nuclear receptor pathway antagonists through targeting aldehyde dehydrogenase 1A3” (iScience, 2025)
